According to US8716246B2, “Azuvirin peptides” (The Regents of the University of California, priority 2011, dated 2014):
Entries after “also recorded” stand apart in the source; their conditions may differ. Not every detail of the peptide structures is certain; ends, links or a residue may be inferred. Bridge positions count the residues as written; N and C are the ends. Square brackets hold non-standard residues; d marks the D form. Peptide text beside a SMILES is read from it. * marks the point of attachment. Oic = O=C(O)[C@@H]1C[C@@H]2CCCC[C@@H]2N1; Cha = N[C@@H](CC1CCCCC1)C(=O)O; Tle = CC(C)(C)[C@H](N)C(=O)O; Nicotinoyl = O=C(c1cccnc1)*; Acm = CC(=O)NC*

Sequences of proteins named here, by UniProt entry; tags and fusion partners are left off.
UniProt P09874, whole entry: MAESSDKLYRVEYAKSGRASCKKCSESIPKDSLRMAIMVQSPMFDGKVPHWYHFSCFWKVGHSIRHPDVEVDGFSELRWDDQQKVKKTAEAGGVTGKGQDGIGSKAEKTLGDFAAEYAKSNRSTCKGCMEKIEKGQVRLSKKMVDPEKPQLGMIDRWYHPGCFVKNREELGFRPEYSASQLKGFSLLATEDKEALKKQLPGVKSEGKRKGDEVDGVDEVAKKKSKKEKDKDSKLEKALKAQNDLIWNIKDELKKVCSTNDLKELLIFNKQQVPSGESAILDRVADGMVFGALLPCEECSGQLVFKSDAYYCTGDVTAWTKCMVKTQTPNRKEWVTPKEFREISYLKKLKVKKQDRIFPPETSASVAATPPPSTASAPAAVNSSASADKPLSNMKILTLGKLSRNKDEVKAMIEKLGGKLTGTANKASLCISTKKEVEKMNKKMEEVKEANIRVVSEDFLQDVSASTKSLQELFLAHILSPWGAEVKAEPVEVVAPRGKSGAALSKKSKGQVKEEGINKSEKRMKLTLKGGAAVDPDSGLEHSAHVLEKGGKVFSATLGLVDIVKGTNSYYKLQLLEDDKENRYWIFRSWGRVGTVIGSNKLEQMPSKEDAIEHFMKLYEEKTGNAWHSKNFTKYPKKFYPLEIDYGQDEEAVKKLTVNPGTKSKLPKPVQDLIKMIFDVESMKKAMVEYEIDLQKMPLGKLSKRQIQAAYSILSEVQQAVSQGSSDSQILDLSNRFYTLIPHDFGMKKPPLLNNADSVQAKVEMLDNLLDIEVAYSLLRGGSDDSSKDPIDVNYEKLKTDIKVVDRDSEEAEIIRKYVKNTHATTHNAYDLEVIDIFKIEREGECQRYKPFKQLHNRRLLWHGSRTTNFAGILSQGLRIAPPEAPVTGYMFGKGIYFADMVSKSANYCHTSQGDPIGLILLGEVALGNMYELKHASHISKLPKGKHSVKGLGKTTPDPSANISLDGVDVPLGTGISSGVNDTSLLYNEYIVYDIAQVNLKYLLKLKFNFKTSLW

Tests used:
[1] = system: Lewis lung carcinoma (LLC); assay: Artificial metastasis model: i.v. Lewis lung carcinoma plus local thoracic irradiation, lung tumor nodules counted; type: in vivo, C57BL/6 mice; conditions: with radiation therapy (4 x 4 Gy), peptide or equimolar nicotinamide i.p. from day 4 after i.v. LLC
Experimental: (§1) The AzV-36-Nic conjugate was tested in vivo for its ability to radiosensitize Lewis lung carcinoma (LCC) in an artificial metastasis model. Briefly, C57BL/6 mice (8 weeks old) were intravenously injected with 5×10^5 cells of syngeneic LLC. Various treatments were initiated 4 days later, after cancer engraftment. In general, each animal received intraperitoneally a total of 500 μg (˜10 mg/kg) of peptide in 4 daily doses 60 mins before local thoracic irradiation (4 Gy). Animals were sacrificed on the 14th day of the experiment and lung tumor nodules were counted.
as §1, with “Animal experiments.” for “The AzV-36-Nic conjugate was tested in vivo for its ability to radiosensitize Lewis lung carcinoma (LCC) in an artificial metastasis model.”, “min” for “mins”
Animal experiments. C57BL/6 gnotobiotic mice (8 weeks old) were obtained from the UCLA AALAC accredited Department of Radiation Oncology Facility and intravenously injected with 5×10^5 cells of syngeneic LLC. Various treatments were initiated 4 days later, after cancer engraftment. In general, each animal received intraperitoneally a total of 500 μg (˜25 mg/kg) of peptide (or equimolar amount of nicotinamide) in 4 daily doses 60 min before local thoracic irradiation (0 or 4 Gy, total dose: 4.4=16 Gy) that was delivered using an Atomic Energy of Canada cesium gamma irradiator with a dose rate of approximately 0.6 Gy/min with the rest of the body shielded. Prior to irradiation animals were anesthetized by intraperitoneal injection of ketamine/xylazine mixture. Animals were sacrificed on the 14th day of the experiment and lung tumor nodules were counted. All experiments were approved by the UCLA Animal Care and Use Committee and conformed to local and national guidelines.

[2] = system: Lewis lung carcinoma (LLC); assay: Subcutaneous engraftment model of LLC with local tumor irradiation; type: in vivo, C57BL/6 mice
[3] = molecular target: T1, poly (ADP-ribose) polymerase (PARP) (Homo sapiens, UniProt P09874); assay: PARP activity assay (HT Universal Colorimetric PARP Assay Kit, cell-free); type: biochemical; conditions: peptide concentrations up to 50 μM
T1 construct: purchased Trevigen, Inc., Gaithersburg, Md; 4677-096-K

[4] = system: Lewis lung carcinoma cells; assay: Cell viability assay of irradiated LLC cells (radiosensitization, MultiTox-Fluor); type: cell-based, murine; conditions: peptide 1 h before 0, 2, 4 Gy; viability 72 h later
LLC cells = assay: Clonogenic cell survival assay, LLC cells; type: cell-based, murine; conditions: 0.1-20 μM for 0.5 h; 0, 2 or 4 Gy; colonies after 8 days

Structure (SMILES): CC(=O)NCSC[C@H](NC(=O)[C@H](CC1CCCCC1)NC(=O)[C@H](CC1CCCCC1)NC(=O)[C@@H](CCCCNC(=O)c1cccnc1)NC(=O)[C@@H](N)Cc1ccc(O)cc1)C(=O)N[C@H](C(=O)N[C@@H](CC1CCCCC1)C(=O)N1[C@H](C(=O)N[C@H](CCCNC(=N)N)C(=O)N[C@@H](Cc2c[nH]cn2)C(=O)N[C@@H](CCCNC(=N)N)C(=O)N[C@H](C(=O)N[C@@H](CC2CCCCC2)C(=O)N[C@@H](CSCNC(C)=O)C(=O)N[C@H](CCCCN)C(N)=O)[C@@H](C)O)C[C@@H]2CCCC[C@@H]21)C(C)(C)C [AzV36-NicL, YkNic-Cha-Cha-Cam-Tle-Cha-Oic-rHRT-Cha-Cam-k-CONH] (H-Y[dK](Nicotinoyl)[Cha][Cha]C(Acm)[Tle][Cha][Oic][dR]HRT[Cha]C(Acm)[dK]-NH2)
- radiosensitizing effect in artificial metastasis model (in words) [1]: improve efficacy of radiotherapy; also recorded: significantly (P<0.001, ANOVA) decreases tumor colonies; also recorded: increased efficacy of radiotherapy
- additional tumor growth delay of radiation plus peptide over radiation alone ([2]; s.c. LLC ~5 mm, 500 μg peptide total i.p. in 4 daily doses before 4 Gy, radiation alone ~7.1 days delay): ~2.5 days
- effect on radiotherapy of subcutaneous LLC tumors (in words) ([2]; therapy started at ~5 mm tumor diameter, continued 4 days): improves efficacy of radiotherapy; also recorded: enhances the effect of RT on the growth of LLC in a subcutaneous site (P<0.05, ANOVA)
- inhibition of PARP activity [3]: did not inhibit
- radiosensitizing effect, cell viability assay (in words) [4]: cytotoxic effects that were peptide-dose-dependent as well as radiation-dose-dependent
- radiosensitizing effect, clonogenic cell survival (in words) (LLC cells): cytotoxic effects that were peptide-dose-dependent as well as radiation-dose-dependent

Structure (SMILES): C[C@@H](O)[C@@H]1NC(=O)[C@H](CCCNC(=N)N)NC(=O)[C@H](Cc2c[nH]cn2)NC(=O)[C@@H](CCCNC(=N)N)NC(=O)[C@@H]2C[C@@H]3CCCC[C@@H]3N2C(=O)[C@H](CC2CCCCC2)NC(=O)[C@H](C(C)(C)C)NC(=O)[C@@H](NC(=O)[C@H](CC2CCCCC2)NC(=O)[C@H](CC2CCCCC2)NC(=O)[C@@H](CCCCNC(=O)c2cccnc2)NC(=O)[C@@H](N)Cc2ccc(O)cc2)CSSC[C@@H](C(=O)N[C@H](CCCCN)C(N)=O)NC(=O)[C@H](CC2CCCCC2)NC1=O [AzV36-Nic, YkNic-Cha-Cha-Cys-Tle-Cha-Oic-rHRT-Cha-Cys-k-CONH] (H-Y[dK](Nicotinoyl)[Cha][Cha]C[Tle][Cha][Oic][dR]HRT[Cha]C[dK]-NH2; disulfide 5-14)
- radiosensitizing effect in artificial metastasis model (in words) [1]: improve efficacy of radiotherapy; also recorded: showed less potency
- radiosensitizing effect in artificial metastasis model (in words) ([1]; listed as AzV39-Nic): increased efficacy of radiotherapy
